Test results reported in the supplement of paper PMC11006884.
The entries are a selection whose mix differs from that of the whole data set. This is a noisy data set.

Chains of the proteins cited; added tags and fusions are not shown. Lines headed by an entry give the natural chain unless they say otherwise; changes in a name come on top.
UniProt Q96L34: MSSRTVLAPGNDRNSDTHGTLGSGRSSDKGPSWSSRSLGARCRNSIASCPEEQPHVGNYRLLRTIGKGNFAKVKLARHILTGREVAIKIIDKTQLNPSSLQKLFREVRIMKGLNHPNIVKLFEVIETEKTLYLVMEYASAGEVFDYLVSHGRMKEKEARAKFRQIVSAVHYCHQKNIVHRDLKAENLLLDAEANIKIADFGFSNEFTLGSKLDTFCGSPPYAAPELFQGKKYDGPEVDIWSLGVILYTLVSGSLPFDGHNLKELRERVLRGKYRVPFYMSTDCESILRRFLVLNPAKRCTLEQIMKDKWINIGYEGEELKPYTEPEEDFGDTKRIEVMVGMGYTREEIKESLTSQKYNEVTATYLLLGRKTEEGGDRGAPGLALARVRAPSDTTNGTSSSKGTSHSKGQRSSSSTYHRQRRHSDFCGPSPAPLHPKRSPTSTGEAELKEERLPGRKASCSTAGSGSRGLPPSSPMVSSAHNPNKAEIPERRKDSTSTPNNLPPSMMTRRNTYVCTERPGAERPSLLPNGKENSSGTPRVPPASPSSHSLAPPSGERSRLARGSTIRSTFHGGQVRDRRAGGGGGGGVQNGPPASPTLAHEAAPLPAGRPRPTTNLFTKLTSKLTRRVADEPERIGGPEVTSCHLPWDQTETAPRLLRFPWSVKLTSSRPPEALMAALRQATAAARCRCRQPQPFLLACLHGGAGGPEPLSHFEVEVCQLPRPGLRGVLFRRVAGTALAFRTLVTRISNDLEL
UniProt Q96PZ0: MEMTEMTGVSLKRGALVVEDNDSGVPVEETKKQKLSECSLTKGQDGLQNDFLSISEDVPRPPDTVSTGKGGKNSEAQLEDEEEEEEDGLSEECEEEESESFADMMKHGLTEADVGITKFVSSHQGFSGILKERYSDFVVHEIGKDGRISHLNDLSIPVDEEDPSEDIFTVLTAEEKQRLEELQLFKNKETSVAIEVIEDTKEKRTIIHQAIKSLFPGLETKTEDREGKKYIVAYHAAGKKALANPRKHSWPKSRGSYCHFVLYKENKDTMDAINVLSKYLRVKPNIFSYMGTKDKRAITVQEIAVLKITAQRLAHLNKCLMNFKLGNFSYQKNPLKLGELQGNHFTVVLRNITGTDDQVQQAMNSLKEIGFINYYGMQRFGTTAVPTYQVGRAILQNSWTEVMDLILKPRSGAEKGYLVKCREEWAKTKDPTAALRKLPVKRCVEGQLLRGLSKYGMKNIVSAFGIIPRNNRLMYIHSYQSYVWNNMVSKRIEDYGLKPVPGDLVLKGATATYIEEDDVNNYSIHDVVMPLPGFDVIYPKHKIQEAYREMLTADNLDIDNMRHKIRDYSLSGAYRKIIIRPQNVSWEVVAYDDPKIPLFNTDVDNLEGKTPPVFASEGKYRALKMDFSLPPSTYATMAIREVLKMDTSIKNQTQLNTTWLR
UniProt Q96KR1: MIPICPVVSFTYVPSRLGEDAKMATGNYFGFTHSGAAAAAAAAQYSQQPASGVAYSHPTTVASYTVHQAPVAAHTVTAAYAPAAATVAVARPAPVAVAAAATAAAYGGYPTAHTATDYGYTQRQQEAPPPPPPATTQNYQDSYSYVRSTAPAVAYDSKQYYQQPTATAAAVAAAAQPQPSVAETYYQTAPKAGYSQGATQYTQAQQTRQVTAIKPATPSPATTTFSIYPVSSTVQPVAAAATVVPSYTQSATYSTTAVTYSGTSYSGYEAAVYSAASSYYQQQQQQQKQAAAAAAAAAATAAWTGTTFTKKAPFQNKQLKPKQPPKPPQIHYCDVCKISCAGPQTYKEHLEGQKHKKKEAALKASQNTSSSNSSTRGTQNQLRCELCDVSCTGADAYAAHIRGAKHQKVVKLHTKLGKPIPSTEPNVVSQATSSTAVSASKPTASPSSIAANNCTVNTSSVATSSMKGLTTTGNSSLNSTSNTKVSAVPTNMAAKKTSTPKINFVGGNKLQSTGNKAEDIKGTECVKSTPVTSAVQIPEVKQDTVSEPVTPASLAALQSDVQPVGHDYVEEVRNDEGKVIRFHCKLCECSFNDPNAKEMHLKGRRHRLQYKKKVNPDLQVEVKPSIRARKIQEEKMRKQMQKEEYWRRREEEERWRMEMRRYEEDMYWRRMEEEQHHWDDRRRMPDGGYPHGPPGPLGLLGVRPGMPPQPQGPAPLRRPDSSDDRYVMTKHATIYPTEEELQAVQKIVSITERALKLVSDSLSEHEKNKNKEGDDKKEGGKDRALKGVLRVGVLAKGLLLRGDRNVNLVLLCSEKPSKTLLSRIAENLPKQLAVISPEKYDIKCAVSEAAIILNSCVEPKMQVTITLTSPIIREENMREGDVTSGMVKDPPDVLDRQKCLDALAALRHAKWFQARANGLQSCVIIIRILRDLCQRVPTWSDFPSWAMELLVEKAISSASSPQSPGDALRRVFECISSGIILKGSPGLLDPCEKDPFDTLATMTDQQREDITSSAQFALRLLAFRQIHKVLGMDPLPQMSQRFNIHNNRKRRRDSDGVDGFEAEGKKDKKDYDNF
UniProt Q9BQG0: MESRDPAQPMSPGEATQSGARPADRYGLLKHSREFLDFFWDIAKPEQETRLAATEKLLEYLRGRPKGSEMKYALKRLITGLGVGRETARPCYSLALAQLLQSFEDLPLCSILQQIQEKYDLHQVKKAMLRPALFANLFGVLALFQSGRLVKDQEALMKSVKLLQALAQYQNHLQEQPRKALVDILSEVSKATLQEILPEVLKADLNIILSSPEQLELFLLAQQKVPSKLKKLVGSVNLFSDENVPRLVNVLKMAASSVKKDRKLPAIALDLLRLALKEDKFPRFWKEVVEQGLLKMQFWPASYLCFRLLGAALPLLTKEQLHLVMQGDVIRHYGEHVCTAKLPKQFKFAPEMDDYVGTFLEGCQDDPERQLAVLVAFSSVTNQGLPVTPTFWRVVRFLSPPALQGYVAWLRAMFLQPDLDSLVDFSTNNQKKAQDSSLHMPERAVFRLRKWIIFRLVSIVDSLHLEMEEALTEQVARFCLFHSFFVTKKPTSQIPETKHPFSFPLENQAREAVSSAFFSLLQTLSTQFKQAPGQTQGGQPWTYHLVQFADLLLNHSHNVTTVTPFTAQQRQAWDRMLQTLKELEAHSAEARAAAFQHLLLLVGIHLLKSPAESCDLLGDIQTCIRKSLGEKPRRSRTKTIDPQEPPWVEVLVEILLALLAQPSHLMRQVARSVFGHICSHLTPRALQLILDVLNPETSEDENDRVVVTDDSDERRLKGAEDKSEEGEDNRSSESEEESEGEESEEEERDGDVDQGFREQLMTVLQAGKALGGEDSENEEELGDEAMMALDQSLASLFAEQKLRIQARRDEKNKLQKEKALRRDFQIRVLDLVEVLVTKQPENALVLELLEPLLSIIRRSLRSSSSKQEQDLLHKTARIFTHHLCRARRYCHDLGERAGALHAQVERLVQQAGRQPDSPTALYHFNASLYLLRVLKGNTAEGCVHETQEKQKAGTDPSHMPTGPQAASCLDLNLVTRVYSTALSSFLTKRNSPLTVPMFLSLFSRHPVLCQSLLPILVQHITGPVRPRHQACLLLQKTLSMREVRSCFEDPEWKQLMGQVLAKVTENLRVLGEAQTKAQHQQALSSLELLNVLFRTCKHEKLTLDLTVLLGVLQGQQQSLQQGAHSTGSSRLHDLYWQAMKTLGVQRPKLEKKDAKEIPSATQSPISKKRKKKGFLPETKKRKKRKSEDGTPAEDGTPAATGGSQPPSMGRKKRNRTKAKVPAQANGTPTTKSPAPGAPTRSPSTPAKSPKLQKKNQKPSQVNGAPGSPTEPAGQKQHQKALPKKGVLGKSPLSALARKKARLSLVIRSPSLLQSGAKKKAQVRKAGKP
UniProt Q99426: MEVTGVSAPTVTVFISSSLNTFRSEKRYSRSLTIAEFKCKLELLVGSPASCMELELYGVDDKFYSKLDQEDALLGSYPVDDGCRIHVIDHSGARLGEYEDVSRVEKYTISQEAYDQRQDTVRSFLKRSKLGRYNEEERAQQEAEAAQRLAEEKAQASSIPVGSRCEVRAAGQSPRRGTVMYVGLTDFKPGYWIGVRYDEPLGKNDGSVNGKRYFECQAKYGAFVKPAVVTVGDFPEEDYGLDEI
UniProt Q99797: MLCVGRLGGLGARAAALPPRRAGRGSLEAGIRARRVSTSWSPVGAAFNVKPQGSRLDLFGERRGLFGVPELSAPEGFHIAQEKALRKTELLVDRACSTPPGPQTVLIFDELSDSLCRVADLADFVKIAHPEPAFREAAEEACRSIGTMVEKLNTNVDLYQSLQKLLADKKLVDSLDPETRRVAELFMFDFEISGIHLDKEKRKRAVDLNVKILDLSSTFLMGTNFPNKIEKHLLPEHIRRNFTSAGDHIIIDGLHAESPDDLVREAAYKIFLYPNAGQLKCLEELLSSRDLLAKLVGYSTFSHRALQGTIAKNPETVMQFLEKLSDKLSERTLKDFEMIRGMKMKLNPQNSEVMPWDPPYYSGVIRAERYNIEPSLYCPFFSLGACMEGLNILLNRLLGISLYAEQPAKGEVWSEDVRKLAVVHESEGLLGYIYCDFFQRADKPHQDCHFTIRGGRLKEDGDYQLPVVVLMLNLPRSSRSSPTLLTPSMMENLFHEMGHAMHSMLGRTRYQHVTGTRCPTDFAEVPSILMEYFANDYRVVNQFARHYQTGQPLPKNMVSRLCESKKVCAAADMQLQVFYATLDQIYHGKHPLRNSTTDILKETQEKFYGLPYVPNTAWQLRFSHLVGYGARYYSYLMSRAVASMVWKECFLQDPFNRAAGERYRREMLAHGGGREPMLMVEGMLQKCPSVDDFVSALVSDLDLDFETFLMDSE
UniProt Q96KB5: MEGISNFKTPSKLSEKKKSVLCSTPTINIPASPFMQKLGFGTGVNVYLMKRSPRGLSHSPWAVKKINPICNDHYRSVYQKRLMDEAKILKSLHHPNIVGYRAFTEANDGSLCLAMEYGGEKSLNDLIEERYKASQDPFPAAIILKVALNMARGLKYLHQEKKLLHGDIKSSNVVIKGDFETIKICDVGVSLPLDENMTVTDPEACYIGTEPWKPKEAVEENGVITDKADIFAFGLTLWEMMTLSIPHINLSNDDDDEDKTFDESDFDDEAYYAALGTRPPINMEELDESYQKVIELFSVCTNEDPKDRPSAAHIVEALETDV
UniProt Q99590: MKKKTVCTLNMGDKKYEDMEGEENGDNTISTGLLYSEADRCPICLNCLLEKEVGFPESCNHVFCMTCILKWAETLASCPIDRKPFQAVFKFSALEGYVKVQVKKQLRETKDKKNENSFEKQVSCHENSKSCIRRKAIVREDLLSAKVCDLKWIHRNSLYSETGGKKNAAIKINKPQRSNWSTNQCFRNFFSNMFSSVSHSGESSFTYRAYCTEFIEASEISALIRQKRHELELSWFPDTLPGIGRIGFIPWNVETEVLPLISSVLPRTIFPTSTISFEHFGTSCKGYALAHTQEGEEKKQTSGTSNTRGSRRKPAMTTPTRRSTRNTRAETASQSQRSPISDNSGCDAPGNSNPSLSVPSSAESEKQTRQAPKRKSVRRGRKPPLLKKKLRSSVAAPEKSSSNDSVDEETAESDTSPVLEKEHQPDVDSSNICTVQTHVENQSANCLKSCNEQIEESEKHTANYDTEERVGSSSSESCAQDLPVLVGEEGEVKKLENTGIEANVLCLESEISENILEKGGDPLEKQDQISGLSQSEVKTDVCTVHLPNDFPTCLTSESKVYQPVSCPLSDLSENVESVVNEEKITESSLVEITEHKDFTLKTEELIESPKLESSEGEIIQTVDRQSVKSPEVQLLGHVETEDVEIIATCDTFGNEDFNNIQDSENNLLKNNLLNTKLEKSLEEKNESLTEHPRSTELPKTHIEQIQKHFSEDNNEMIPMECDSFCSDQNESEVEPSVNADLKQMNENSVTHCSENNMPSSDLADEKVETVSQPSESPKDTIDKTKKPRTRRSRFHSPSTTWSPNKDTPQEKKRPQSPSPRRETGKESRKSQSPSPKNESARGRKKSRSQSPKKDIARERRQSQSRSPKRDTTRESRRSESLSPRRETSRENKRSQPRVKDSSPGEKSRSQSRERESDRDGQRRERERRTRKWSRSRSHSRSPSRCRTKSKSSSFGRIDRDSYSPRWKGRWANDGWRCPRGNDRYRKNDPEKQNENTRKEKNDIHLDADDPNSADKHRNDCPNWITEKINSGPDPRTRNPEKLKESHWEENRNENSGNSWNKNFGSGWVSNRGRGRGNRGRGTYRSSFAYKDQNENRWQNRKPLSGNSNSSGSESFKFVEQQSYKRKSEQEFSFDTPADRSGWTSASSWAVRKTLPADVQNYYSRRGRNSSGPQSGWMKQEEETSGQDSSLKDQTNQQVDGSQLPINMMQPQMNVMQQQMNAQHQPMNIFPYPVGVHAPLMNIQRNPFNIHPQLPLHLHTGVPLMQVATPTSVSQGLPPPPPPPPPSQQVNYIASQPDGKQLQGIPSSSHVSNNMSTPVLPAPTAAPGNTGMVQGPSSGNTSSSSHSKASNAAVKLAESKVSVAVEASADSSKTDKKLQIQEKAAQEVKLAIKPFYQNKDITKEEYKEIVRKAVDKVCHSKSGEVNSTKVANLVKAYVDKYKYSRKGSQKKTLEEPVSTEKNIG

Compound: COC(=O)/C=C/c1ccccc1 [methyl cinnamate]
Assay: log2 ratio of iodoacetamide-alkyne labeling of the cysteine site, DMSO over compound (competition); higher = stronger covalent engagement of the cysteine by the compound, active = 1 or more
Conditions: 500 µM; treatment time 1 h; system: HEK293T cell lysate
Procedure, shortened: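 For each cysteine, the log2 competition ratio is mean control-channel reporter intensity over mean compound-channel reporter intensity. HEK293T lysate (2 mg/mL) was exposed to vehicle or electrophile (500 µM, 1 h, ambient temperature), labelled with iodoacetamide alkyne (1 h), clicked to sCIP-TMT reagents, digested overnight with trypsin at 37 °C, streptavidin-enriched and analysed by Orbitrap Eclipse LC-MS/MS with FAIMS and FragPipe. Cysteines quantified in only one of three replicates, each with duplicate channels, were excluded.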

| Target | log2 ratio of iodoacetamide-alkyne labeling |
| --- | --- |
| MMS19 C386 (UniProt Q96T76) | inactive: 0.0911 |
| POP1 C745 (UniProt Q99575) | inactive: 0.298 |
| PIP5K1A C480 (UniProt Q99755) | inactive: 0.184 |
| MARK4 C459 (UniProt Q96L34) | inactive: 0.117 |
| SCYL1 C309 (UniProt Q96KG9) | inactive: 0.117 |
| PUS7 C443 (UniProt Q96PZ0) | inactive: 0.104 |
| TTC1 C28 (UniProt Q99614) | inactive: 0.271 |
| CCDC138 C28 (UniProt Q96M89) | inactive: 0.27 |
| USP28 C1058 (UniProt Q96RU2) | inactive: 0.357 |
| RNF2 C179 (UniProt Q99496) | inactive: 0.134 |
| PAWR C173 (UniProt Q96IZ0) | inactive: 0.251 |
| IFT140 C1360 (UniProt Q96RY7) | inactive: 0.229 |
| ZFR C844 (UniProt Q96KR1) | inactive: 0.00449 |
| RBM14 C90 (UniProt Q96PK6) | inactive: 0.15 |
| RSF1 C944 (UniProt Q96T23) | inactive: 0.0975 |
| MYBBP1A C305 (UniProt Q9BQG0) | inactive: -0.0479 |
| KIF2C C287 (UniProt Q99661) | inactive: 0.197 |
| UniProt Q96SY0_C193 | inactive: -0.224 |
| MYBBP1A C614 (UniProt Q9BQG0) | inactive: -0.326 |

| Target | log2 ratio of iodoacetamide-alkyne labeling |
| --- | --- |
| CDK5RAP2 C249 (UniProt Q96SN8) | inactive: 0.406 |
| CCT7 C158 (UniProt Q99832) | inactive: 0.195 |
| AKAP9 C2571 (UniProt Q99996) | inactive: 0.327 |
| UniProt Q9BPX6_C83 | inactive: 0.437 |
| TBCB C216 (UniProt Q99426) | inactive: 0.205 |
| MIPEP C518 (UniProt Q99797) | inactive: -0.351 |
| PBK C112 (UniProt Q96KB5) | inactive: 0.0874 |
| CNN2 C164 (UniProt Q99439) | inactive: 0.159 |
| RUFY1 C603 (UniProt Q96T51) | inactive: -0.0926 |
| ZFYVE21 C47 (UniProt Q9BQ24) | inactive: -0.0368 |
| MYBBP1A C1031 (UniProt Q9BQG0) | inactive: 0.18 |
| EHMT2 C596 (UniProt Q96KQ7) | inactive: -0.0532 |
| UniProt Q99590_C506 | inactive: -0.168 |
| EP400 C162 (UniProt Q96L91) | inactive: 0.268 |
| MYBBP1A C1096 (UniProt Q9BQG0) | inactive: 0.266 |
| TUBA1C C295 (UniProt Q9BQE3) | inactive: 0.153 |
| CPNE1 C4 (UniProt Q99829) | inactive: -0.11 |
| TBCB C83 (UniProt Q99426) | inactive: 0.102 |
| UniProt Q96JM3_C194 | inactive: 0.282 |

Rewritten with bars between the fields: part of the list above
Target | log2 ratio of iodoacetamide-alkyne labeling
MARK4 C459 (UniProt Q96L34) | inactive: 0.117
PUS7 C443 (UniProt Q96PZ0) | inactive: 0.104
TTC1 C28 (UniProt Q99614) | inactive: 0.271
UniProt Q96SY0_C193 | inactive: -0.224
MYBBP1A C614 (UniProt Q9BQG0) | inactive: -0.326
CDK5RAP2 C249 (UniProt Q96SN8) | inactive: 0.406
RUFY1 C603 (UniProt Q96T51) | inactive: -0.0926
MYBBP1A C1031 (UniProt Q9BQG0) | inactive: 0.18
EHMT2 C596 (UniProt Q96KQ7) | inactive: -0.0532
MYBBP1A C1096 (UniProt Q9BQG0) | inactive: 0.266
TBCB C83 (UniProt Q99426) | inactive: 0.102
